{"source": "patent US11446359B2", "about": "“Systems and methods for cardiac plexus neuromodulation” (Tulavi Therapeutics, Inc., priority 2015, dated 2022)", "test": "Reserpine release from chondroitin sulfate / 6-arm PEG amine hydrogel (Example 2)", "data": [{"smiles": "COC(=O)[C@H]1[C@H]2C[C@@H]3c4[nH]c5cc(OC)ccc5c4CCN3C[C@H]2C[C@@H](OC(=O)c2cc(OC)c(OC)c(OC)c2)[C@@H]1OC", "note": "[reserpine]", "values": [{"measurement": "initial burst of the drug loading", "setting": "NHS-ester activated chondroitin sulfate crosslinked with 6-arm PEG amine", "result": 15, "unit": "%"}, {"measurement": "release from the hydrogel", "setting": "after initial burst", "result": "20-50 μg per day"}]}]}
